# Source: patent US8299023B2 (Hoffmann-La Roche Inc., priority 2008, dated 2012)
# Assay: general procedure: Fmoc solid-phase peptide synthesis; Fmoc-Linker-BHA resin; HBTU and DIC preferred; HOBT additive
# Settings: whole synthesis, scale 0.25 mmole
Substance,isolated mass [mg],isolated yield [%]
Ac-Ile-Lys-Cip-Arg-His-Tyr-Leu-Asn-Trp-Val-Thr-Arg-Gln-(NMe)Arg-Tyr-NH2,16,3
Ac-Ile-Lys-Cba-Arg-His-Tyr-Leu-Asn-Trp-Val-Thr-Arg-Gln-(NMe)Arg-Tyr-NH2,18,3.2
Ac-Ile-Lys-HomPqa-Arg-His-Tyr-Leu-Asn-Trp-Val-Thr-Arg-Gln-(NMe)Arg-Tyr-NH2,11,2
Ac-Ile-Lys-Bqa-Arg-His-Tyr-Leu-Asn-Trp-Val-Thr-Arg-Gln-(NMe)Arg-Tyr-NH2,79,4
Ac-Ile-Lys-Pdp-Arg-His-Tyr-Leu-Asn-Trp-Val-Thr-Arg-Gln-(NMe)Arg-Tyr-NH2,17,3
Ac-Ile-Lys-Ppa-Arg-His-Tyr-Leu-Asn-Trp-Val-Thr-Arg-Gln-(NMe)Arg-Tyr-NH2,117,21
Ac-Ile-Lys-Appa-Arg-His-Tyr-Leu-Asn-Trp-Val-Thr-Arg-Gln-(NMe)Arg-Tyr-NH2,98,17
Ac-Ile-Lys-Dqa-Arg-His-Tyr-Leu-Asn-Trp-Val-Thr-Arg-Gln-(NMe)Arg-Tyr-NH2,22,4
Ac-Ile-Lys-Pqa-Arg-His-Tyr-Leu-Asn-Trp-Val-Thr-Arg-Gln-(NMe)Arg-Tyr-NH2,53,9
Ac-Ile-Lys-Pipa-Arg-His-Tyr-Leu-Asn-Trp-Val-Thr-Arg-Gln-(NMe)Arg-Tyr-NH2,118,21
